Experimental data: PubChem BioAssay AID1487 (National Center for Advancing Translational Sciences (NCATS), 2009)
Some of the results follow. Shown are side measurements of this screen, not its main read-out; they come without a call. The list favours compounds with an active or inconclusive main result. The note in brackets gives the kind of curve behind each potency; many fits are weak.

Assay: qHTS Assay for Modulators of Lamin A Splicing
Conditions: HeLa LMNA splicing GFP/RFP minigene ratio, 48 h
How it was run: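 Read-out is the ratio of GFP to DsRed2 object intensity, acquired by 488 nm laser-scanning cytometry on HeLa lamin A-EGFP minigene reporter cells. Compound incubation 48 hrs at 37 °C in Opti-MEM with 2% FBS; DMSO 0.5% final.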

[1] = measured here: GFP splicing reporter channel
[2] = measured here: RFP viability control channel

## C/C(=N\NC(=O)C(c1ccncc1)N1CCOCC1)c1ccc(Br)cc1 (centres undefined)
[1]
  AC50: 0.1 µM [falling, full curve]

## CC1(C)CC(=O)C=C(NC2=CC3OC(c4ccccc4)OCC3OC2=O)C1 (centres undefined)
[1]
  AC50: 22.4 µM [rising, partial curve, poor fit]
[2]
  AC50: 22.4 µM [rising, partial curve]

## CCNC(=O)c1cc(Cl)ccc1OC
[1]
  AC50: 0.316 µM [rising, full curve, poor fit]
[2]
  AC50: 0.251 µM [rising, full curve, poor fit]

## N#C/C(=N\Nc1cc(Cl)cc(Cl)c1)c1nnc2n1CCCCC2
[2]
  AC50: 31.6 µM [rising, single point]

## COc1cccc(-n2c(CN3CCN(c4ccccc4)CC3)nc3ccc([N+](=O)[O-])cc3c2=O)c1
[2]
  AC50: 15.8 µM [rising, partial curve]

## O=C(CSc1nnc(COc2ccc(F)cc2)o1)N1c2ccccc2CCc2ccccc21
[1]
  AC50: 10 µM [rising, partial curve]
[2]
  AC50: 15.8 µM [rising, partial curve]

## O=C(Nc1ccc(Cl)cc1)N1CCC(c2nc(-c3cccs3)no2)CC1
[1]
  AC50: 25.1 µM [rising, single point]
[2]
  AC50: 25.1 µM [rising, single point]

## COc1ccc(-n2c(SCC(=O)NCCC(C)C)nc3ccsc3c2=O)cc1
[1]
  AC50: 3.98 µM [rising, single point]
[2]
  AC50: 5.62 µM [rising, single point]

## CCN(CC)c1ccc(NC(=O)c2cc(OC)cc(OC)c2)c(C)c1
[1]
  AC50: 1.26 µM [rising, single point]
[2]
  AC50: 0.794 µM [rising, full curve, poor fit]

## CCNc1ncc2ncc(=O)n(Cc3ccc(F)cc3)c2n1
[1]
  AC50: 14.1 µM [falling, partial curve]

## CS(=O)(=O)c1ccc2nc(NC(=O)c3cc4ccccc4o3)sc2c1
[2]
  AC50: 12.6 µM [rising, single point]

## O=C(Nc1nc2ccccc2s1)c1ccc(OCC2CCCO2)cc1 (centres undefined)
[1]
  AC50: 14.1 µM [rising, single point]
[2]
  AC50: 17.8 µM [rising, partial curve]

## Cc1cc(NC(=O)C2CCN(S(=O)(=O)c3cccs3)CC2)no1
[2]
  AC50: 2.51 µM [rising, single point]

## O=C1NCC2(CCN(CCc3ccccc3)CC2)O1
[2]
  AC50: 0.00355 µM [falling, full curve, poor fit]

## CCOc1ccccc1NC1=C(Cl)C(=O)N(Cc2ccccc2)C1=O
[1]
  AC50: 10 µM [falling, single point]

## CSc1ncc(Cl)c(C(=O)C(C#N)c2nc3c(C)cc(C)cc3c(=O)[nH]2)n1 (centres undefined)
[2]
  AC50: 35.5 µM [rising, single point]

## CCCSc1ncc(Cl)c(C(=O)Nc2ccc(S(=O)(=O)N3CC(C)OC(C)C3)cc2)n1 (centres undefined)
[1]
  AC50: 35.5 µM [rising, single point]
[2]
  AC50: 31.6 µM [rising, single point]

## CCn1nnc(-c2ccc(N)cc2)n1
[2]
  AC50: 5.01 µM [falling, single point]

## CCOc1cc(/C=C2/C(=O)ON=C2C)ccc1OCc1ccccc1F
[1]
  AC50: 25.1 µM [falling, single point]
[2]
  AC50: 12.6 µM [falling, partial curve]

## CCOc1cccc2sc(Nc3nc4ccc(NC(C)=O)cc4s3)nc12
[1]
  AC50: 12.6 µM [rising, partial curve]
[2]
  AC50: 22.4 µM [rising, partial curve, poor fit]

## O=C(Nn1cnnc1)C1CCCN1S(=O)(=O)c1ccc(F)cc1 (centres undefined)
[1]
  AC50: 0.0158 µM [falling, full curve, poor fit]
[2]
  AC50: 0.02 µM [falling, full curve, poor fit]

## CCC(=O)N1c2ccccc2CC1C(=O)NCc1ccccc1C (centres undefined)
[2]
  AC50: 5.01 µM [rising, partial curve]

## COc1ccc(OC)c(NC(=S)N(CCc2c(C)[nH]c3ccc(C)cc23)Cc2cccs2)c1
[2]
  AC50: 0.891 µM [rising, full curve]

## Cc1ccccc1NC(=S)NNC(=O)c1csc2c1CCC(C)C2 (centres undefined)
[2]
  AC50: 35.5 µM [rising, single point]

## CNc1nc(Oc2ccc(=O)n(C)n2)nc(N2CCOCC2)n1
[1]
  AC50: 35.5 µM [falling, single point]
[2]
  AC50: 22.4 µM [falling, partial curve, poor fit]

## CCCC(C)C(=O)Nc1ccc(F)c(Cl)c1 (centres undefined)
[1]
  AC50: 6.31 µM [falling, single point]

## O=C(COc1cccnc1[N+](=O)[O-])NCc1ccco1
[2]
  AC50: 0.0224 µM [rising, full curve, poor fit]

## Cc1nc(-c2ccccc2)sc1-c1nc(-c2cccnc2)ncc1S(=O)(=O)c1ccccc1
[1]
  AC50: 14.1 µM [rising, single point]
[2]
  AC50: 14.1 µM [rising, single point]

## O=C(NCc1ccc(F)cc1)C(c1cccs1)N(C(=O)c1csnn1)C1CC1 (centres undefined)
[1]
  AC50: 17.8 µM [rising, single point]

## CCn1c(CSc2nncn2-c2ccc(OC)cc2)nc2cc(S(=O)(=O)N(C)C)ccc21
[2]
  AC50: 8.91 µM [rising, partial curve, poor fit]

## CN(C)NC(=S)NC(=O)C12CC3CC(CC(C3)C1)C2
[2]
  AC50: 1.12 µM [rising, full curve]

## COc1ccc(-n2nc([N+](=O)[O-])c(=NCCC3=CCCCC3)n2O)cc1
[2]
  AC50: 17.8 µM [rising, partial curve, poor fit]

## O=c1nc(N/N=C/c2ccccn2)cn[nH]1
[2]
  AC50: 11.2 µM [rising, partial curve]

## NC[C@@H]1O[C@H](C23CC4CC(CC(C4)C2)C3)Cc2c1ccc(O)c2O
[1]
  AC50: 12.6 µM [falling, partial curve]
[2]
  AC50: 11.2 µM [falling, partial curve]

## Cc1ccc(SCc2[nH]nc3c2C(c2ccc(C)o2)C(C#N)=C(N)O3)cc1 (centres undefined)
[1]
  AC50: 25.1 µM [falling, single point]
[2]
  AC50: 25.1 µM [falling, single point]

## CCCC(=O)NC(c1ccccc1OC)c1ccc2cccnc2c1O (centres undefined)
[1]
  AC50: 2.51 µM [falling, full curve]
[2]
  AC50: 4.47 µM [falling, partial curve]

## Cc1nn(C)c(Cl)c1S(=O)(=O)N[C@@H](c1ccccc1)[C@]1(C)C[C@H]1[C@@H](C)C(=O)Nc1ccc2ccccc2c1
[2]
  AC50: 10 µM [rising, partial curve]

## CCN(CC)c1ccc(-c2nn3c(-c4ccccc4OC)nnc3s2)cc1
[1]
  AC50: 0.794 µM [rising, full curve, poor fit]
[2]
  AC50: 0.891 µM [rising, single point]

## CCCCC(CC)CNC(=O)c1[nH]c(C)c(C(C)=O)c1C (centres undefined)
[2]
  AC50: 12.6 µM [rising, partial curve]

## CCC(=O)Nc1cc(NC(=O)CSc2ncc(-c3ccc(F)cc3)n2Cc2ccco2)ccc1C
[1]
  AC50: 3.98 µM [rising, partial curve]

## O=C(Nc1cccc([N+](=O)[O-])c1)c1ccc2ccccc2c1O
[1]
  AC50: 3.98 µM [rising, full curve, poor fit]
[2]
  AC50: 3.98 µM [rising, full curve, poor fit]

## Oc1ccc(/C=N/Nc2cc(N3CCCC3)nc(N3CCCC3)n2)cc1O
[2]
  AC50: 17.8 µM [rising, partial curve]

## COc1ccccc1C(=O)NCc1ccc(-c2nc3ccccc3s2)cc1
[1]
  AC50: 35.5 µM [rising, single point]
[2]
  AC50: 35.5 µM [rising, single point]

## O=C(Nc1ccccc1)Nc1ccc(Br)c(Cl)c1
[2]
  AC50: 20 µM [rising, partial curve]

## Cc1nc(-n2nc(C)c(Cc3ccccc3Cl)c2C)sc1C(=O)N1CCCCC1C (centres undefined)
[1]
  AC50: 2.24 µM [rising, partial curve, poor fit]

## CC(C)(C)NC(=O)CSc1nc(-c2ccccc2)c(-c2ccccc2)[nH]1
[2]
  AC50: 35.5 µM [rising, single point]

## Nc1cnn(C2OC(CO)C(O)C2O)c(=O)n1 (centres undefined)
[2]
  AC50: 0.0501 µM [rising, full curve]

## CCOc1ccc2nc(SC(CC)C(=O)Nc3cc(C)on3)sc2c1 (centres undefined)
[1]
  AC50: 35.5 µM [rising, single point]
[2]
  AC50: 35.5 µM [rising, single point]

## Cc1ccc(-c2nc(CSCC(=O)Nc3cc(C)on3)c(C)o2)cc1
[2]
  AC50: 35.5 µM [rising, single point]

## C[C@H](NC(=O)N1CCc2nc(COc3ccccc3)c3c(c2C1)CO[C@@H](C)C3)c1ccccc1
[1]
  AC50: 0.0794 µM [falling, partial curve]
[2]
  AC50: 0.562 µM [falling, single point]

## S=C(Nc1ccc(Cl)cc1Cl)N1CCOCC1
[1]
  AC50: 14.1 µM [rising, single point]
[2]
  AC50: 14.1 µM [rising, partial curve]

## CCc1ccccc1N(CC)C(=O)c1cn(CC)c(=O)c2cc(OC)c(OC)cc12
[2]
  AC50: 1.78 µM [rising, single point]

## CC(Sc1nnc(-c2ccc(Cl)cc2Cl)n1Cc1ccccc1)C(=O)Nc1nccs1 (centres undefined)
[2]
  AC50: 7.94 µM [falling, partial curve, poor fit]

## CCCn1c(C)cc(C(=O)CSc2nc3nc(C)cc(C)n3n2)c1C
[1]
  AC50: 25.1 µM [rising, single point]
[2]
  AC50: 25.1 µM [rising, single point]

## CCOC(=O)C1(CCCc2ccccc2)CCN(C(=O)C(C)n2cncn2)CC1 (centres undefined)
[1]
  AC50: 0.708 µM [falling, partial curve]
[2]
  AC50: 0.141 µM [falling, partial curve]
